These results are taken from paper PMC5934766.

Substitutions are numbered along the chain they refer to. No constants are given. Whether binding was seen depends on the method and setting. Binding seen in cells or lysates may run through a third protein. Some binding calls cover weakened binding; strength is not graded here. Sequences can lack the tags named with a protein.

Experiment [1] addresses T1, HA-MARCH6 (wild type) (human) (UniProt O60337).
T1 sequence: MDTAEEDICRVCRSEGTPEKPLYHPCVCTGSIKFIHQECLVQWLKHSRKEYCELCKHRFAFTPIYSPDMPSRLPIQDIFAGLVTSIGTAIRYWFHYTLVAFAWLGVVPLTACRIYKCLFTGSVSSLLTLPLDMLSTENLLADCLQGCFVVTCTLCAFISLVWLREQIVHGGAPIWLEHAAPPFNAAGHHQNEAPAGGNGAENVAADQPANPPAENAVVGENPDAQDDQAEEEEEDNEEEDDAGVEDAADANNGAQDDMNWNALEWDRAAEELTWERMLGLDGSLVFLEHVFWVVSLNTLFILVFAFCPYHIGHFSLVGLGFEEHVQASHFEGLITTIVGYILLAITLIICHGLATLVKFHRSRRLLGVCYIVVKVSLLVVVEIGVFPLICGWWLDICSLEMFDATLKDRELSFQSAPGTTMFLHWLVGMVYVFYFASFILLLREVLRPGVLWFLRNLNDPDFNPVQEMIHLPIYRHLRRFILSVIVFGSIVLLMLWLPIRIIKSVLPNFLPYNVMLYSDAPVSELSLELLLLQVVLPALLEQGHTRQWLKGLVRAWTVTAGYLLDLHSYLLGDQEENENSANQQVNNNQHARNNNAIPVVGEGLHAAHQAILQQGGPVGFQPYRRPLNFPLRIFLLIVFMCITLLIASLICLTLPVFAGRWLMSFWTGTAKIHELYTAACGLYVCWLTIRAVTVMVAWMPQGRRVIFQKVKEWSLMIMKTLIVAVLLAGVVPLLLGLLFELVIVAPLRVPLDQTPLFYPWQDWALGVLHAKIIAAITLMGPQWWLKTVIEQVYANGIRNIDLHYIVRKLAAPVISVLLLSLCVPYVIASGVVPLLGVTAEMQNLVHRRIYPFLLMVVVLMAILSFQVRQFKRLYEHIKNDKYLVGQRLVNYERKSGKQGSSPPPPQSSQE
As to the kind of experiment: co-IP; immunoprecipitation of HA-tagged MARCH6 or MARCH6 C9A, blot for endogenous SPP (Appendix Fig S6A and B; legend not shown).

Experiment [2] addresses T2, MARCH6 C9A-HA (catalytically inactive MARCH6) (human) (UniProt O60337).
T2 sequence: T1 sequence with C9A
The experiment is described as above.

Experiment [3] has as its target T2, MARCH6 C9A-HA (catalytically inactive MARCH6) (human). Nature of the experiment: co-IP; HeLa cells stably expressing MARCH6 C9A-HA with or without FLAG-UBE2J2; lysed in 1% digitonin, immunoprecipitated with an HA antibody, washed with 1% Triton X-100; blot for FLAG-UBE2J2.

B1: signal peptide peptidase (SPP), endogenous (enzyme, UniProt Q8TCT9 1-377)
chain: MDSALSDPHNGSAEAGGPTNSTTRPPSTPEGIALAYGSLLLMALLPIFFGALRSVRCARGKNASDMPETITSRDAARFPIIASCTLLGLYLFFKIFSQEYINLLLSMYFFVLGILALSHTISPFMNKFFPASFPNRQYQLLFTQGSGENKEEIINYEFDTKDLVCLGLSSIVGVWYLLRKHWIANNLFGLAFSLNGVELLHLNNVSTGCILLGGLFIYDVFWVFGTNVMVTVAKSFEAPIKLVFPQDLLEKGLEANNFAMLGLGDVVIPGIFIALLLRFDISLKKNTHTYFYTSFAAYIFGLGLTIFIMHIFKHAQPALLYLVPACIGFPVLVALAKGEVTEMFSYEESNPKDPAAVTESKEGTEASASKGLEKKEK
B1: the binding entry in experiment [1] and in experiment [2] was “binds” in each case.

B2: FLAG-UBE2J2 (enzyme, UniProt Q8N2K1 1-259)
chain: MSSTSSKRAPTTATQRLKQDYLRIKKDPVPYICAEPLPSNILEWHYVVRGPEMTPYEGGYYHGKLIFPREFPFKPPSIYMITPNGRFKCNTRLCLSITDFHPDTWNPAWSVSTILTGLLSFMVEKGPTLGSIETSDFTKRQLAVQSLAFNLKDKVFCELFPEVVEEIKQKQKAQDELSSRPQTLPLPDVVPDGETHLVQNGIQLLNGHAPGAVPNLAGLQQANRHHGLLGGALANLFVIVGFAAFAYTVKYVLRSIAQE
Take B2: the binding result in experiment [3] is “binds”.
